Measurements published in patent CN116284368A.
These are yes or no findings as the source states them, for the method shown. Some results given as binding are weak or reduced against the parent protein; the word gives no strength.

Experiments:
[1] = target: T1, 重组表达纯化的人MxA蛋白 (10-662Aa, P20591) (human) (UniProt P20591); test: hybridoma screening ELISA with MxA-biotin and avidin-HRP
T1 sequence (biotinylated with a commercial biotinylation reagent (sites not stated), looked up): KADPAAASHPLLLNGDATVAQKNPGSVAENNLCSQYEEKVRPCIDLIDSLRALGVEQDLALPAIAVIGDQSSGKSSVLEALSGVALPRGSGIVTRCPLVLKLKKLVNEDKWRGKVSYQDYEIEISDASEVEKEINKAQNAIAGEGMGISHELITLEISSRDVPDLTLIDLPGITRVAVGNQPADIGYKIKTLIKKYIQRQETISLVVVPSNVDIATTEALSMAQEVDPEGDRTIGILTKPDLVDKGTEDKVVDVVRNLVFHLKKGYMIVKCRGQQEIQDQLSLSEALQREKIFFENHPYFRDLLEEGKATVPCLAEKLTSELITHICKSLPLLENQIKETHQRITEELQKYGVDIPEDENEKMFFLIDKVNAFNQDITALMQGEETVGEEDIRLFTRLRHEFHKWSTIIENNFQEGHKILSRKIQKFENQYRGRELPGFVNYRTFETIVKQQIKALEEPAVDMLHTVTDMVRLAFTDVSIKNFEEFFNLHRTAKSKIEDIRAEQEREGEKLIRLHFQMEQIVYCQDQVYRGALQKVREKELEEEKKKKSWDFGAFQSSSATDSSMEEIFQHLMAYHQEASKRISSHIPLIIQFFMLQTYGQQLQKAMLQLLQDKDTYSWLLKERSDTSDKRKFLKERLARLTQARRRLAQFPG

[2] = target: T1, 重组表达纯化的人MxA蛋白 (10-662Aa, P20591) (human); test: ELISA, antibody coated at 1 ug/mL, biotinylated MxA titrated, streptavidin-HRP, OD450

B1: 抗体A (MxA-A抗体) (antibody, V domains shown)
VH: EVQLVETGGGLVQPKGSLIVSCAASGFTFNRSAMNWVRQAPGKGLEWVARIRTKSNNYATYYADSVKDRFTISRDDSQSMLYLQMNNLKTEDTAMYYCVGGSDFAYWGQGTLVTVSA
VL: DIQMTQTTSSLSASLGDRVTISCRASQDISNYLNWFQQKPDGTVKLLIYYTSRLYSGVPSRFSGSGSGTDYSLTITNLEQEDIATYFCQQGNTLPLTFGAGTKLELK
With B1 the binding [1] was “binds” and the binding [2] was “binds”.

B2: 抗体B (MxA-B抗体) (antibody, V domains shown)
VH: QVQLQQSGAELARPGASVKLSCKASGYTFTSYWILWLKQRPGQGLEWIGAVYPGDGDTRYTQKFKGKATLTADKSSSTAYMQLSSLASEDSAVYYCARGYDNSFDYWGQGTTLTVSS
VL: DVLMTQTPLSLPVSLGDQASISCRTSQTIVHSNGNTYLEWYLQKPGQSPKLLIYKVSNRFSGVPDRFSGSGSGTDFTLKISRVEAEDLGVYYCFQGSHVPPTFGAGTKLELK
For B2, the binding [1] was “binds” and the binding [2] was “binds”.
